Values of other authors in article PMC6151569 (Molecules : A Journal of Synthetic Chemistry and Natural …, 2017).

Test system: LPS-stimulated TNF-α release from human whole blood
Settings: printed in Figure 1, known inhibitors; cited from earlier work

For C[S+]([O-])c1ccc(-c2nc(-c3ccncc3)c(-c3ccc(F)cc3)[nH]2)cc1 (stereo not shown) [SB203580], the IC50 is listed as 1.76 µM.
